# Patent US20170291905A1, “ARGININE METHYLTRANSFERASE INHIBITORS AND USES THEREOF” (Epizyme, Inc., priority 2014, published 2017)
# By UniProt entry, the sequences of proteins in these tests, tags left out.
# UniProt Q99873, whole entry: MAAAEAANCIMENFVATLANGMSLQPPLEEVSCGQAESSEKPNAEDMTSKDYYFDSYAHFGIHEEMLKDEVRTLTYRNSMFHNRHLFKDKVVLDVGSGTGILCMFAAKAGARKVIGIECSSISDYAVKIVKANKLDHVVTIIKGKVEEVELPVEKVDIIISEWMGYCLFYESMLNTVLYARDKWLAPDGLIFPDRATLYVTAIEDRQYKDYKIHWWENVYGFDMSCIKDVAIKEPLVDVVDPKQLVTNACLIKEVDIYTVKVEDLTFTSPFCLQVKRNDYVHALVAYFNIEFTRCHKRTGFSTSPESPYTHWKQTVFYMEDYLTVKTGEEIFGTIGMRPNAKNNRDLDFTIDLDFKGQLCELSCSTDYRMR
# Structures were worked out from names or drawings and are uncertain.
# Biological target: PRMT1 (Homo sapiens, UniProt Q99873)
# Assay: RKO methylation assay, In Cell Western (ICW) for mono-methyl arginine and DNA content
# Assay type: cell-based
# Conditions: RKO cells, 72 hours, mono-methyl arginine signal normalised to DRAQ5, percent activation
# Description: RKO Methylation Assay RKO adherent cells were purchased from ATCC (American Type Culture Collection), Manassas, Va., USA. DMEM/Glutamax medium, penicillin-streptomycin, heat inactivated fetal bovine serum, 0.05% trypsin and D-PBS were purchased from Life Technologies, Grand Island, N.Y., USA. Odyssey blocking buffer, 800CW goat anti-rabbit IgG (H+L) antibody, and Licor Odyssey infrared scanner were purchased from Licor Biosciences, Lincoln, Nebr., USA. Mono-methyl arginine antibody was purchased from Cell Signaling Technology, Danvers, Mass., USA. Methanol was purchased from VWR, Franklin, Mass., USA. 10% Tween 20 was purchased from KPL, Inc., Gaithersburg, Md., USA. DRAQ5 was purchased from Biostatus Limited, Leicestershire, UK. […] First, the ratio for each well was determined by: Each plate included fourteen control wells of DMSO only treatment (minimum activation) as well as fourteen control wells for maximum activation treated with 20 μM of a reference compound. The average of the ratio values for each control type was calculated and used to determine the percent activation for each test well in the plate. […] Percent activation was determined and EC30 curves were generated using triplicate wells per concentration of compound.
smiles,measurement,value
CNCCN(C)Cc1ncsc1[C@H]1CC[C@@]2(CC1)CC(C)(C)CO2 [compound 83],PRMT1 RGG ICW EC30,18.49 nM
